For one compound, IC50 and IC80 results are on record in publication PMC7558399, “In Vitro Selective Growth-Inhibitory Activities of Phytochemicals, Synthetic Phytochemical Analogs, and Antibiotics against Diarrheagenic/Probiotic Bacteria and Cancer/Normal Intestinal Cells” (Pharmaceuticals, 2020).

Converted amounts (≈) assume the structure as drawn.

A word on the IC50: it is the concentration needed to halve the response being measured.

Test [1] relates to Caco-2 (ATCC HTB 37) intestinal cancer cells. The test is described as follows: MTT cytotoxicity assay, Caco-2. Format: cell-based. The settings on record: Homo sapiens, 72 h. Background: Tetrazolium dyes change colour on reduction, which living cells bring about.
The test system of test [2] is intestinal cancer cells (HT29 and Caco-2). The experiment in a line: MTT cytotoxicity assay, mean for intestinal cancer cells. Format: cell-based.

As to `O=C(O)c1cn(C2CC2)c2cc(N3CCNCC3)c(F)cc2c1=O` [CP, ciprofloxacin], the IC50 in test [1] came to 69.9 ± 4.9 µg/mL (≈ 211 µM); in test [2] (mean of HT29 and Caco-2, >512 replaced with 1024, read-out: x¯ -CC ± SD: mean IC50 for intestinal cancer cells), 100 ± 30 µg/mL (≈ 302 µM). Besides, the IC80 in test [1] (read-out: IC80 ± SD (80% inhibitory concentration of proliferation)) and in test [2] (read-out: x¯ -CC ± SD: mean IC80 for intestinal cancer cells) was greater than 512 µg/mL each time.
